PubChem BioAssay AID743255 (National Center for Advancing Translational Sciences (NCATS), 2014)
Among all 390,000 compounds or so, about 910 (0.23%) were called active. Inconclusive means that the source gave no clear call. Such entries were picked first, then a sample of the others. Calls follow the shape of the dose curve; as a rule, active = well fitted inhibition curve with a large enough effect; inconclusive = small, poorly fitted or top-dose-only effect; inactive = no such curve, though single readings can be large or run the other way. Potencies beside an inconclusive call are fits to weak or partial responses and may not hold up.

The chains behind the UniProt entries cited, without tags or fusion partners. Where a name states a change or a piece, a line headed by the entry shows the natural chain unless it says otherwise.
UniProt O94782: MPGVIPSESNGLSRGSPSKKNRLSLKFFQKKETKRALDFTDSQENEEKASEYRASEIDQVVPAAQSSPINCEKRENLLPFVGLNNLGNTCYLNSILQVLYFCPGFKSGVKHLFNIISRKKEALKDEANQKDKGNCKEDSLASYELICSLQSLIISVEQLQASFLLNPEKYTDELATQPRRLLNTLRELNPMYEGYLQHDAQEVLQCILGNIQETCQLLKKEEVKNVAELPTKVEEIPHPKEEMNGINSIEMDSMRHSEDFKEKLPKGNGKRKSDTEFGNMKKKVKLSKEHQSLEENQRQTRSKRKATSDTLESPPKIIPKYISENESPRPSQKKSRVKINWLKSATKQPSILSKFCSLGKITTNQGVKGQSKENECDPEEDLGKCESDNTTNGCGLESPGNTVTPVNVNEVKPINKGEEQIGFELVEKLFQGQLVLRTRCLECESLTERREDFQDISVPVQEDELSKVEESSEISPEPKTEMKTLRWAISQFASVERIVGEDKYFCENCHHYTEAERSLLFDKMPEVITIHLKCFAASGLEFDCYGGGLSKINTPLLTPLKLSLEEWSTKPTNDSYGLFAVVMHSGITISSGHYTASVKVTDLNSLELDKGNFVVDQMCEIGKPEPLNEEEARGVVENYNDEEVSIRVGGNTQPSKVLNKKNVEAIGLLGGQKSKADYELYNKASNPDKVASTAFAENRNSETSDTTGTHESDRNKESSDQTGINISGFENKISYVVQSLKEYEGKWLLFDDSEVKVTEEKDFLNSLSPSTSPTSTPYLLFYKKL

Each compound was assayed against Ubiquitin carboxyl-terminal hydrolase 1 (Homo sapiens) (UniProt O94782) (assay: Inhibitors of USP1/UAF1: Primary Screen). Settings: recombinant USP1/UAF1, Ub-Rhodamine cleavage fluorescence; series mostly up to 57.1 µM.
How it was run: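 USP1/UAF1 complex (1 nM) preincubated 15 min at room temperature with compound, then Ub-Rho substrate (150 nM final) added. Kinetic fluorescence at 480/540 nm over 6 reads at 60 s intervals; 50 mM HEPES pH 7.8, 0.5 mM EDTA, 0.1 mg/ml BSA, 1 mM TCEP, 0.01% Tween-20.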
Also: nearly all actives have a fitted effect of over 60% in size.
Potency is read from the fitted curve at half-maximal effect.

SMILES	Potency
CCCCN(CC)C(=O)CCCn1c(=O)c2cccn2c2ccccc21	inactive
Nc1ncnc2c1ncn2-c1ccccc1Cl	inconclusive: 0.355 µM [inhibitor, full curve, poor fit]
Cc1cc(C(C)(C)C)oc1C(=O)N(CC(=O)NC1CCCC1)c1ccc(F)cc1	inconclusive: 0.251 µM [inhibitor, full curve, poor fit]
CCCn1c(CN(C)Cc2ccccc2)nc2c1c(=O)n(C)c(=O)n2C	inactive
COc1ccc(-c2cc(CN3C(=O)c4ccccc4C3=O)on2)cc1	inconclusive: 0.251 µM [inhibitor, full curve, poor fit]
COC(=O)C1=CN(Cc2cccs2)C=C(C(=O)OC)C1c1cccc(O)c1	inactive
CSc1ccc(C(=O)C2CCCN(Cc3cccn3-c3cccnc3)C2)cc1 (stereo not given)	inconclusive: 3.55 µM [inhibitor, full curve, poor fit]
O=C(/C=C/c1cc(Br)ccc1O)c1ccco1	inconclusive: 8.91 µM [inhibitor, full curve]
COc1ccc(CNC(=O)CCNS(=O)(=O)c2ccc3c(c2)CCCC(=O)N3)cc1	inactive
CN(N=Cc1ccc([N+](=O)[O-])cc1)c1ccccn1	inactive
COc1cccc(N2C(=O)C3CCCN3C2c2ccc(N(C)C)cc2)c1 (stereo not given)	inconclusive: 25.1 µM [inhibitor, partial curve]
CCOC(=O)C1CCN(C(C(=O)NC2CCCCC2)c2ccc(OC)cc2)CC1 (stereo not given)	inactive
CC(C)CN1C2CCCC1CC(NC(=O)c1ccc([N+](=O)[O-])cc1)C2 (stereo not given)	inactive
C=C1CCc2c([nH]c3ccc(OCC(C)C)cc23)C1=O	inactive
C[C@@H]1CCCCO[C@@H](CN(C)CC2CCCCC2)[C@@H](C)CN([C@H](C)CO)C(=O)c2cc(NS(=O)(=O)c3ccc(Cl)cc3)ccc2O1	inconclusive: 0.316 µM [inhibitor, full curve]
Cc1ccc2nc(COc3cccc(NC(=O)COc4ccc(F)cc4)c3)cc(=O)n2c1	inconclusive: 0.01 µM [inhibitor, full curve]
CN(C)c1oc(-c2ccccc2Cl)nc1P(=O)(c1ccccc1)c1ccccc1	inconclusive: 14.1 µM [inhibitor, partial curve]
C=CC[C@H](CC(=O)N(CCO)Cc1ccccc1)C(=O)N[C@H](COC(=O)[C@@H](CC=C)CC(=O)OC(C)(C)C)Cc1c[nH]c2ccccc12	inactive
Cc1cc(C)n2nc(C(=O)N/N=C/c3c4ccccc4cc4ccccc34)nc2n1	inconclusive: 31.6 µM [inhibitor, partial curve, poor fit]
O=C(NCc1ccc2c(c1)CCN2C(=O)c1ccncc1)c1ccccc1F	inconclusive: 79.4 µM [inhibitor, partial curve, poor fit]
CC(=O)Nc1ccc(S(=O)(=O)NCC(=O)OCC(=O)NCc2ccc3c(c2)OCO3)cc1	inconclusive: 5.01 µM [inhibitor, full curve, poor fit]
COc1ccc(NS(=O)(=O)c2ccc(C)c(C(=O)N(C)CCc3ccc(OC)c(OC)c3)c2)cc1	inconclusive: 6.31 µM [inhibitor, full curve, poor fit]

Rewritten comma-delimited: 2 of the compounds above.
SMILES,Potency
CCOC(=O)C1CCN(C(C(=O)NC2CCCCC2)c2ccc(OC)cc2)CC1 (stereo not given),inactive
CC(C)CN1C2CCCC1CC(NC(=O)c1ccc([N+](=O)[O-])cc1)C2 (stereo not given),inactive

Further structures

SMILES	Potency
O=C(COc1ccccc1)OCc1cc(=O)n2nc(-c3cccs3)sc2n1	inconclusive: 50.1 µM [inhibitor, partial curve, poor fit]
CCCCNc1cc(C)nc(NCc2ccccc2)n1	inactive
C=Cc1ccc(Cn2c(SCC(=O)N3CCN(c4ccc(F)cc4)CC3)nc3ccccc32)cc1	inconclusive: 11.2 µM [inhibitor, partial curve, poor fit]
S=c1[nH]nc(-c2ccccc2)n1/N=C/c1cccs1	inconclusive: 79.4 µM [inhibitor, partial curve, poor fit]
CN1CC(=O)N(CC(=O)Nc2ccc(OC(F)(F)F)cc2)c2ccccc2C1=O	inconclusive: 14.1 µM [inhibitor, partial curve, poor fit]
N/C(=N\c1nc2c(c(=O)[nH]1)CCCC2)Nc1ccc(Oc2ccccc2)cc1	inconclusive: 28.2 µM [inhibitor, single point]
COC(=O)c1ccc(NC(=O)CCc2c(C)nn(-c3ccc(N4CCCCC4)nn3)c2C)cc1	inactive
Cc1ccc(C(=O)NNc2c3ccccc3nc3ccccc23)cc1	inconclusive: 44.7 µM [inhibitor, partial curve, poor fit]
CCOc1ccc2nc(NC(=O)Cn3[nH]c(=O)c4ccccc4c3=O)sc2c1	inconclusive: 56.2 µM [inhibitor, partial curve, poor fit]
CC(=O)c1ccc(NC(=O)COCc2cc(-c3ccc(F)cc3)on2)cc1	inactive
Cc1cc2c(cc3c(SCc4ccccc4Cl)nnc(C)n32)o1	inconclusive: 0.891 µM [inhibitor, full curve, poor fit]
COC(=O)c1c(NC(=O)COC(=O)c2ccc(O)cc2)sc2c1CCCCC2	inactive
CCN1C(=O)/C(=c2\sc3nc(=O)c(Cc4ccccc4)nn3c2=O)c2ccccc21	inconclusive: 50.1 µM [inhibitor, partial curve, poor fit]
CCOC(=O)c1c(C)n(C)c2c1cc(OC(C)=O)c1ccccc12	inconclusive: 31.6 µM [inhibitor, partial curve]
O=C(Nc1ccc(C(F)(F)F)cc1)C(Cc1ccccc1)n1cccc1 (stereo not given)	inactive
COc1cc(C(=O)Oc2c(OC)cc(C(=S)N3CCOCC3)cc2OC)cc(OC)c1OC	inactive
CC(C)N(Cc1ccccc1)C(=O)CN1C(=O)CSc2ccc(S(=O)(=O)N3CCCC3)cc21	inactive
CCOc1ccc(CCNC(=O)CCn2ccc3cc(S(=O)(=O)N4CCCC4)ccc32)cc1	inconclusive: 44.7 µM [inhibitor, partial curve, poor fit]
O=c1c2c(nc3cc(-c4cccc(Cl)c4)[nH]n13)CCC2	inconclusive: 39.8 µM [inhibitor, single point]
CCOC(=O)C1=C(COC(=O)CNC(=O)c2cccc(C)c2)NC(=O)NC1C (stereo not given)	inconclusive: 10 µM [inhibitor, full curve]
Cc1ccc(-n2c(C)cc(C(=O)OCC(=O)N3CCOCC3)c2C)cc1	inconclusive: 2.51 µM [inhibitor, full curve, poor fit]
Cc1ccc(C)c(OCC(=O)NC2CCCCCC2)c1	inconclusive: 39.8 µM [inhibitor, partial curve, poor fit]

Grouped by structure, those above with a furan ring, fused or not.
SMILES	Potency
Cc1cc(C(C)(C)C)oc1C(=O)N(CC(=O)NC1CCCC1)c1ccc(F)cc1	inconclusive: 0.251 µM [inhibitor, full curve, poor fit]
O=C(/C=C/c1cc(Br)ccc1O)c1ccco1	inconclusive: 8.91 µM [inhibitor, full curve]
Cc1cc2c(cc3c(SCc4ccccc4Cl)nnc(C)n32)o1	inconclusive: 0.891 µM [inhibitor, full curve, poor fit]

Continuation.

SMILES	Potency
CC(C#N)(CCc1ccccn1)CCc1ccccn1	inconclusive: 7.08 µM [inhibitor, partial curve, poor fit]
Cc1ccc(CNC(=O)Cn2cccc2C(=O)c2ccccc2C)cc1	inconclusive: 0.126 µM [inhibitor, full curve, poor fit]
CN(C(=O)COC(=O)c1ccc([N+](=O)[O-])cc1)c1ccccc1	inactive
O=C(CSc1nc2ccccc2s1)Nc1ccc(Cl)c(C(=O)O)c1	inconclusive: 7.94 µM [inhibitor, partial curve, poor fit]
COc1ccc(NC(=O)c2cc(C3CC3)nc3c2c(C)nn3-c2ccccc2)cc1OC	inactive
O=C(O)C1CCN(S(=O)(=O)c2ccc(Cl)s2)CC1	inconclusive: 50.1 µM [inhibitor, partial curve, poor fit]
Cc1ncn(-c2ccccc2)c1-c1ccccc1	inconclusive: 50.1 µM [inhibitor, partial curve, poor fit]
Cc1ccc(/C=C/C(=O)c2ccc(N3CCOCC3)cc2)s1	inconclusive: 28.2 µM [inhibitor, partial curve]
O=c1[nH]c(SCc2ccc([N+](=O)[O-])cc2)nc2c1CCCC2	inconclusive: 56.2 µM [inhibitor, single point]
Cn1c(=O)c2c(SCC(=O)N3CCCC3)nc(CC(C)(C)C)nc2n(C)c1=O	inactive
N#C/C(=C\c1ccc(N2CCOCC2)o1)C(=O)N1CCOCC1	inconclusive: 31.6 µM [inhibitor, partial curve, poor fit]
CCSc1nnc2n1C(C)(C)Cc1ccccc1-2	inconclusive: 56.2 µM [inhibitor, partial curve, poor fit]
O=S(=O)(c1ccccc1)N1N=C(c2cccs2)CC1c1ccc(F)cc1 (stereo not given)	inactive
COc1ccc(-n2nc3c(N4CCCC(C(=O)NCCc5ccccc5C)C4)nnc(C)c3c2C)cc1 (stereo not given)	inconclusive: 31.6 µM [inhibitor, partial curve, poor fit]
CN1CCN(/C=N/c2c(C#N)cnn2-c2ccccc2)CC1	inactive
CCOC(=O)c1c(N)sc(C(O)(C(F)(F)F)C(F)(F)F)c1-c1ccccc1	inactive
Cc1nc(N2CCC(C)CC2)c2c(C)c(C(=O)Nc3ccc(C(F)(F)F)cc3)sc2n1	inconclusive: 25.1 µM [inhibitor, partial curve, poor fit]
CC(=O)c1ccc(N2CCN(C(=O)C(=O)c3cn(CC(=O)N4CCOCC4)c4ccccc34)CC2)cc1	inconclusive: 0.316 µM [inhibitor, full curve, poor fit]
CC(=O)c1ccc(N2CCN(c3ncnc4c3cnn4-c3cc(Cl)ccc3C)CC2)cc1	inconclusive: 35.5 µM [inhibitor, partial curve]
Cc1ccccc1OCC(=O)OCc1cc(=O)n2nc(-c3cccs3)sc2n1	inactive
COc1ccccc1CNC(=O)c1nnn(CC(=O)Nc2c(C)cccc2C)c1N	inconclusive: 3.55 µM [inhibitor, full curve, poor fit]
